Results are given in words; binding and its absence hold for the method and conditions named. Some results given as binding are weak or reduced against the parent protein; the word gives no strength.
Assays:
[1] = target: TLR4 of murine bone marrow-derived macrophages (BMDMs) (mouse) (UniProt Q9QUK6); assay: BMDMs incubated with 10 µg/mL rFlag-PTX3 for 3 h; IP with anti-TLR4, immunoblot (FIG. 1D right)
[2] = target: T1, MD2 of murine bone marrow-derived macrophages (BMDMs) (mouse) (UniProt Q9JHF9); assay: BMDMs incubated with 10 µg/mL rFlag-PTX3 for 3 h; IP with anti-MD2, immunoblot (FIG. 1D right)
T1 sequence (looked up): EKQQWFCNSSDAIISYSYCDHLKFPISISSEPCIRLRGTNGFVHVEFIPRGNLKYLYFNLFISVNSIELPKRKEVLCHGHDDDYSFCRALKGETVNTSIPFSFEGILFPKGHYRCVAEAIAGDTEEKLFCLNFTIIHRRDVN

Sequences of proteins named here, by UniProt entry; tags and fusion partners are left off. Residues count along the entry.
UniProt Q9QUK6, residues 26-835: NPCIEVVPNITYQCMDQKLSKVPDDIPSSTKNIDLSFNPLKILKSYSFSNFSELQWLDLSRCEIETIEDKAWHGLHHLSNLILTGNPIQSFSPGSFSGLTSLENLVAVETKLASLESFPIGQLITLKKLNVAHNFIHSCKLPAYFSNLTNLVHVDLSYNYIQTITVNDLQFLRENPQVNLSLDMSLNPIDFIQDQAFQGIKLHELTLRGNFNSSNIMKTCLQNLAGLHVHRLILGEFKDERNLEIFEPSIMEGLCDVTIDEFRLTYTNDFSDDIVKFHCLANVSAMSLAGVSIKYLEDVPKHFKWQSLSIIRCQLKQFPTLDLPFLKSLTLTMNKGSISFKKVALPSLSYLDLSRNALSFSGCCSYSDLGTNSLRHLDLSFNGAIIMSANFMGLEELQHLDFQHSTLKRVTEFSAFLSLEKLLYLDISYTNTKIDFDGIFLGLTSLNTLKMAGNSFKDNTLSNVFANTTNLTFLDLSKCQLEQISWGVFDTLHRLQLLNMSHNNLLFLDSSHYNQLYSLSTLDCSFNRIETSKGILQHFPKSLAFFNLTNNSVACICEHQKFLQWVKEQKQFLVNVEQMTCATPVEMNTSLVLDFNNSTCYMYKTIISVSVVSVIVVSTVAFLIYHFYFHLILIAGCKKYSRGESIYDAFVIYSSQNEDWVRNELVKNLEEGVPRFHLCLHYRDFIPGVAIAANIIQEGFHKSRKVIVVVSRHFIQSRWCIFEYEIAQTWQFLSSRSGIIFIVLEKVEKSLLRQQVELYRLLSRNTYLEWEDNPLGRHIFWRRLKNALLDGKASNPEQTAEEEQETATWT
UniProt P26022, residues 18-381: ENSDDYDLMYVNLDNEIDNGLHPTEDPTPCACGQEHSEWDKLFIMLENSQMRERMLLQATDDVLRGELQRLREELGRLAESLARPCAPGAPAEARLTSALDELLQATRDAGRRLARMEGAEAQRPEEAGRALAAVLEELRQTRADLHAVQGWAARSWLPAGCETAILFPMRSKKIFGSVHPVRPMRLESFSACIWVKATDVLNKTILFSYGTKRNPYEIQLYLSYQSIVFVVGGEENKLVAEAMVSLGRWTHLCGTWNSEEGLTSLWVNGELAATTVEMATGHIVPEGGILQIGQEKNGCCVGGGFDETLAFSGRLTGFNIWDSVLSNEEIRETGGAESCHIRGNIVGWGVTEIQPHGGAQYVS

For “recombinant Flag-PTX3 (from UniProt P26022 18-381) (ligand)”, the binding [1] was “binds” and the binding [2] was “binds”.
